Laboratory results: PubChem BioAssay AID504791 (Drosophila RNAi Screening Center, 2011)

- Screen: 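Genes of the fly required for silencing by miRNA, siRNA or endo-siRNA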 (primary screen)
- Cell system: Drosophila S2-derived reporter cells
- Reagent: long dsRNA against Drosophila genes, about 150-250 ng dsRNA per well (siRNA assay); about 80-120 ng (miRNA assay)
- Duration: about 5 days (siRNA assay); about 4 days (miRNA assay)
- Challenge: copper sulfate induction of reporters: 25 µM (siRNA assay); 200 mM stated (miRNA assay), 1-2 days before reading
- Measurement: 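Dual luciferase assay: Renilla to firefly signal ratio in each well, scaled to the mean ratio of its plate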
- Active means: 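First-pass picks had plate-scaled ratios over 1.5 for the siRNA assay, over 1.6 for the miRNA assay, or under 0.6; two distinct dsRNAs had to score alike on retest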
The screen tested about 23,000 reagents; shown is an unselected part of those with a known target gene and a result. Of all reagents, 199 (0.86%) are marked active. 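Plate-scaled ratios behind the calls are not deposited; printed light signals are raw; many rows marked increased or decreased are still called inactive.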 A number with no mark means an inactive call. Reagents against one gene are numbered here. A plus sign joins genes that one reagent is predicted to hit. Not stated in the record: the direction of the score.

Gene	dsRNA no.	stable siRNA reporter change	miRNA reporter change	stable assay Renilla, run 1 (luminescence)	stable assay firefly, run 1 (luminescence)
CG11360	1			8351	3.42e5
CG11360	2			6198	3.12e5
CG32276	1			5374	4.58e5
Mat1	1			5887	3.51e5
CG4597	1			6474	4.36e5
numb	1			8226	1.08e6
RpS21	1			3499	4.02e5
Cht2	1			8556	3.00e5
Lint-O	1			5220	3.29e5
Uxt	1			6755	4.03e5
CG18766	1			7368	4.52e5
Hgsnat	1	reporter ratio lowered past the hit cutoff (active)		6330	6.43e5
Hgsnat	2		reporter ratio lowered past the hit cutoff (active)		
CG30096	1			9322	4.32e5
MnM	1			6118	3.83e5
Gprk1	1			4200	2.66e5
Gprk1	2			6359	5.18e5
Lcp65Ae	1			8774	6.00e5
CG3906	1			2.70e5	3.32e5
CG8563	1			6135	3.31e5
trol	1			8075	4.12e5
trol	2			6627	4.18e5
trol	3			6019	3.31e5
trol	4			5915	3.45e5
Atg9	1			8966	3.28e5
Cpsf6	1	reporter ratio raised past the hit cutoff (active)	reporter ratio raised past the hit cutoff	34261	6.14e5
CG1552	1			5695	3.07e5
Obp58d	1		reporter ratio lowered past the hit cutoff	7231	4.80e5
mbl	1			6500	5.00e5
mbl	2			8615	3.32e5
mbl	3		reporter ratio lowered past the hit cutoff	6107	2.78e5
mbl	4			3023	2.90e5
Tsen34	1			4463	4.68e5
Tsf1	1			5247	4.29e5
Taf8	1			5559	6.08e5
Pp1alpha-96A	1			8295	3.69e5
Pp1alpha-96A	2			4436	3.29e5
fun (retired record)	1			7791	4.47e5
Hs3st-A	1			8417	2.46e5
Hs3st-A	2			6928	2.69e5
Hs3st-A	3			6652	2.99e5
CG8372	1	reporter ratio raised past the hit cutoff		60764	4.33e5
Brd7-9	1			2.72e5	3.29e5
JMJD6	1			9236	4.24e5
Nin	1			19010	4.01e5
CG14218	1			4539	3.17e5
CG3841	1			6963	3.22e5
CG7691	1			6660	3.54e5
CG14762	1			4683	4.02e5
CG14762	2			6432	3.26e5
nclb	1			8150	4.03e5
CG31268	1			4551	4.02e5
st	1			10767	4.88e5
CG31294	1			8639	6.18e5
CG1537	1			4767	3.22e5
CG32248	1			4607	3.68e5
Dmtn	1			7858	4.73e5
CG33284	1			3835	3.53e5
CG15876	1			6558	4.85e5
CG5853	1			6120	4.03e5
CG5853	2			7684	2.89e5
Dhit	1			8978	3.33e5
CG14949	1			6604	3.58e5
MCU	1			6650	3.91e5
Ktl	1			9134	3.18e5
shps	1			7188	3.02e5
CG32413	1			8637	5.39e5
Eip93F	1			4524	4.74e5
Eip93F	2			5135	1.66e5
Eip93F	3			8631	4.12e5
Eip93F	4			5438	4.16e5
VhaPPA1-1	1			7618	4.79e5
CG42634 + CG42635	1			8286	3.91e5
Rpn10	1			5623	2.56e5
Cip4	1			6264	4.86e5
Cip4	2			7107	3.32e5
Cip4	3			8867	5.24e5
mgr	1			6808	3.86e5
CG31806	1			6551	3.51e5
CG14562	1			7346	4.21e5
knrl	1			7282	2.88e5
knrl	2			4556	2.66e5
CG42560 + CG42559	1			8308	5.62e5
gt	1			5807	2.69e5
gt	2			3908	2.02e5
CG13321	1	reporter ratio lowered past the hit cutoff		6063	5.73e5
CG7091	1			5371	4.34e5
CG7091	2			6718	4.85e5
CG6845	1			7738	4.59e5
Rab18	1			8705	5.83e5
Kah	1			5332	5.21e5
Kah	2			6162	4.65e5
CG12020	1			4827	3.03e5
AP-1mu	1			8400	3.68e5
rdgB	1			4244	4.00e5
CG14180 (retired record)	1		reporter ratio lowered past the hit cutoff	3967	2.31e5
Tango10	1			7082	5.28e5
CG31788	1			5095	4.10e5
Camp	1			6467	3.69e5
Cog4	1			15291	1.62e6
CG11980	1			8912	5.11e5
CG2887	1			4727	3.84e5
OXA1L	1			7803	4.42e5
eIF1A	1			5447	2.53e5
CG10914	1			6279	3.05e5
Pli	1			9321	3.98e5

Entries above marked active (3):
Gene	dsRNA no.	stable siRNA reporter change	miRNA reporter change	stable assay Renilla, run 1 (luminescence)	stable assay firefly, run 1 (luminescence)
Hgsnat	1	reporter ratio lowered past the hit cutoff (active)		6330	6.43e5
Hgsnat	2		reporter ratio lowered past the hit cutoff (active)		
Cpsf6	1	reporter ratio raised past the hit cutoff (active)	reporter ratio raised past the hit cutoff	34261	6.14e5
